{"source": "the supplement of paper PMC10849652", "note": "Some of the results follow."}
{"compound": "C1=CC=C(C=C1)[C@H](COC2=CC3=C(C=C2)NC(=O)N3)NC(=O)C4=CC=CN(C4=O)CC5=CC(=C(C=C5)F)F", "test": "log2 fold change, soluble protein after heating vs DMSO (PISA); higher = thermal stabilisation; K562 cells, 10 uM, 30 min; active = over 0.2 and 3.5 SD of the protein, either way, in both replicates (recomputed)", "method_in_brief": "(§1)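 Values are thermal stability changes relative to control samples and are taken from duplicates. They are stated as log2 fold changes. Before quantification by TMTpro 16plex LC-MS/MS with equalised channel sums, K562 cells at 2×10^6 cells/mL were treated with 10 μM compound for 30 min, heated in aliquots for 3 min across 48°C-58°C, pooled, extracted in PBS with 0.5% NP-40 at 4°C, and centrifuged at 21,000xg for 90 min to give the soluble supernatant.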"}
{"target": "MZT2B (UniProt Q6NZ67)", "log2 fold change": "inactive: 0.012"}
{"target": "NCR3LG1 (UniProt Q68D85)", "log2 fold change": "inactive: -0.022"}
{"target": "NA (UniProt B2RBV5)", "log2 fold change": "inactive: 0.002"}
{"target": "NDUFA3 (UniProt O95167)", "log2 fold change": "inactive: 0.112"}
{"target": "NCBP2 (UniProt P52298)", "log2 fold change": "inactive: -0.023"}
{"target": "NDC1 (UniProt Q9BTX1)", "log2 fold change": "inactive: 0.009"}
{"target": "NA (UniProt J3KR12)", "log2 fold change": "inactive: -0.042"}
{"target": "NAA15, A0A0B4J1W3", "log2 fold change": "inactive: -0.147"}
{"target": "NCOA3 (UniProt Q9Y6Q9)", "log2 fold change": "inactive: -0.154"}
{"target": "NAA38 isoform 2 (UniProt Q9BRA0)", "log2 fold change": "inactive: 0.038"}
{"target": "NCOA7 (UniProt Q8NI08)", "log2 fold change": "inactive: 0.03"}
{"target": "NDUFAF3 (UniProt Q9BU61)", "log2 fold change": "inactive: -0.014"}
{"target": "NDUFB6 (UniProt O95139)", "log2 fold change": "inactive: 0"}
{"target": "N6AMT1 (UniProt Q9Y5N5)", "log2 fold change": "inactive: -0.033"}
{"target": "NDUFV3 (UniProt P56181)", "log2 fold change": "inactive: 0.017"}
{"target": "NAA25 (UniProt Q14CX7)", "log2 fold change": "inactive: 0.006"}
{"target": "NDRG2 (UniProt G3V392)", "log2 fold change": "inactive: -0.268"}
{"target": "NDUFA11 (UniProt Q86Y39)", "log2 fold change": "inactive: 0.012"}
{"target": "NCOR1 (UniProt O75376)", "log2 fold change": "inactive: -0.102"}
{"target": "NDUFS8 (UniProt O00217)", "log2 fold change": "inactive: -0.049"}
{"target": "NAA20 (UniProt P61599)", "log2 fold change": "inactive: 0.004"}
{"target": "NAPG (UniProt Q99747)", "log2 fold change": "inactive: -0.036"}
{"target": "NDOR1 isoform 2 (UniProt Q9UHB4)", "log2 fold change": "inactive: 0.057"}
{"target": "NDUFS4 (UniProt O43181)", "log2 fold change": "inactive: 0.078"}
{"target": "NAGA (UniProt P17050)", "log2 fold change": "inactive: -0.043"}
{"target": "MYSM1 (UniProt Q5VVJ2)", "log2 fold change": "inactive: 0.07"}
{"target": "NEDD4L (UniProt Q96PU5)", "log2 fold change": "inactive: 0.014"}
{"target": "NAA11 (UniProt Q9BSU3)", "log2 fold change": "inactive: 0.009"}
{"target": "NDUFB8 (UniProt O95169)", "log2 fold change": "inactive: 0.049"}
{"target": "NAA10 (UniProt P41227)", "log2 fold change": "inactive: 0.021"}
{"target": "NDUFC2 (UniProt O95298)", "log2 fold change": "inactive: -0.001"}
{"target": "NECAP2 (UniProt Q9NVZ3)", "log2 fold change": "inactive: -0.031"}
{"compound": "CC1=C(SC2=C1C(=N[C@H](C3=NN=C(N32)C)CC(=O)N)C4=CC=C(C=C4)Cl)C", "test": "log2 fold change, soluble protein after heating vs DMSO (PISA); higher = thermal stabilisation; K562 cells, 10 uM, 30 min; active = over 0.2 and 3.5 SD of the protein, either way, in both replicates (recomputed)", "method_in_brief": "as §1"}
{"target": "MZT2B (UniProt Q6NZ67)", "log2 fold change": "inactive: 0.23"}
{"target": "NCR3LG1 (UniProt Q68D85)", "log2 fold change": "inactive: -0.031"}
{"target": "NDUFA3 (UniProt O95167)", "log2 fold change": "inactive: 0.14"}
{"target": "NCBP2 (UniProt P52298)", "log2 fold change": "inactive: -0.03"}
{"target": "NDC1 (UniProt Q9BTX1)", "log2 fold change": "inactive: 0.078"}
{"target": "NAA15, A0A0B4J1W3", "log2 fold change": "inactive: -0.082"}
{"target": "NCOA3 (UniProt Q9Y6Q9)", "log2 fold change": "inactive: 0.185"}
{"target": "NAA38 isoform 2 (UniProt Q9BRA0)", "log2 fold change": "inactive: 0.057"}
{"target": "NCOA7 (UniProt Q8NI08)", "log2 fold change": "inactive: 0.093"}
{"target": "NDUFAF3 (UniProt Q9BU61)", "log2 fold change": "inactive: 0.093"}
{"target": "NDUFB6 (UniProt O95139)", "log2 fold change": "inactive: -0.016"}
{"target": "N6AMT1 (UniProt Q9Y5N5)", "log2 fold change": "inactive: 0.059"}
{"target": "NDUFV3 (UniProt P56181)", "log2 fold change": "inactive: 0.069"}
{"target": "NAA25 (UniProt Q14CX7)", "log2 fold change": "inactive: 0.059"}
{"target": "NDUFA11 (UniProt Q86Y39)", "log2 fold change": "inactive: 0.01"}
{"target": "NCOR1 (UniProt O75376)", "log2 fold change": "inactive: 0.06"}
{"target": "NDUFS8 (UniProt O00217)", "log2 fold change": "inactive: 0.1"}
{"target": "NAA20 (UniProt P61599)", "log2 fold change": "inactive: 0.067"}
{"target": "NAPG (UniProt Q99747)", "log2 fold change": "inactive: 0.044"}
{"target": "NDOR1 isoform 2 (UniProt Q9UHB4)", "log2 fold change": "inactive: 0.042"}
{"target": "NDUFS4 (UniProt O43181)", "log2 fold change": "inactive: -0.04"}
{"target": "NAGA (UniProt P17050)", "log2 fold change": "inactive: -0.026"}
{"target": "NEDD4L (UniProt Q96PU5)", "log2 fold change": "inactive: 0.038"}
{"target": "NAA11 (UniProt Q9BSU3)", "log2 fold change": "inactive: 0.042"}
{"target": "NDUFB8 (UniProt O95169)", "log2 fold change": "inactive: 0.045"}
{"target": "NAA10 (UniProt P41227)", "log2 fold change": "inactive: 0.041"}
{"target": "NDUFC2 (UniProt O95298)", "log2 fold change": "inactive: 0.097"}
{"target": "NECAP2 (UniProt Q9NVZ3)", "log2 fold change": "inactive: 0.017"}
{"compound": "CC1=C2C(=CC=C1)N=C(N(C2=O)C3=CC=CC=C3C)CN4C=NC5=C(N=CN=C54)N", "test": "log2 fold change, soluble protein after heating vs DMSO (PISA); higher = thermal stabilisation; K562 cells, 10 uM, 30 min; active = over 0.2 and 3.5 SD of the protein, either way, in both replicates (recomputed)", "method_in_brief": "as §1"}
{"target": "MZT2B (UniProt Q6NZ67)", "log2 fold change": "inactive: -0.019"}
{"target": "NCR3LG1 (UniProt Q68D85)", "log2 fold change": "inactive: 0.012"}
{"target": "NDUFA3 (UniProt O95167)", "log2 fold change": "inactive: 0.102"}
{"target": "NCBP2 (UniProt P52298)", "log2 fold change": "inactive: 0.029"}
{"target": "NDC1 (UniProt Q9BTX1)", "log2 fold change": "inactive: 0.02"}
{"target": "NAA15, A0A0B4J1W3", "log2 fold change": "inactive: 0.042"}
{"target": "NCOA3 (UniProt Q9Y6Q9)", "log2 fold change": "inactive: 0.007"}
{"target": "NAA38 isoform 2 (UniProt Q9BRA0)", "log2 fold change": "inactive: -0.013"}
{"target": "NCOA7 (UniProt Q8NI08)", "log2 fold change": "inactive: 0.036"}
{"target": "NDUFAF3 (UniProt Q9BU61)", "log2 fold change": "inactive: 0.03"}
{"target": "NDUFB6 (UniProt O95139)", "log2 fold change": "inactive: 0.029"}
{"target": "N6AMT1 (UniProt Q9Y5N5)", "log2 fold change": "inactive: 0.09"}
{"target": "NDUFV3 (UniProt P56181)", "log2 fold change": "inactive: -0.022"}
{"target": "NAA25 (UniProt Q14CX7)", "log2 fold change": "inactive: 0.055"}
{"target": "NDUFA11 (UniProt Q86Y39)", "log2 fold change": "inactive: 0.013"}
{"target": "NCOR1 (UniProt O75376)", "log2 fold change": "inactive: 0.002"}
{"target": "NDUFS8 (UniProt O00217)", "log2 fold change": "inactive: 0.082"}
{"target": "NAA20 (UniProt P61599)", "log2 fold change": "inactive: 0.159"}
{"target": "NAPG (UniProt Q99747)", "log2 fold change": "inactive: 0.073"}
{"target": "NDOR1 isoform 2 (UniProt Q9UHB4)", "log2 fold change": "inactive: 0.075"}
{"target": "NDUFS4 (UniProt O43181)", "log2 fold change": "inactive: -0.096"}
{"target": "NAGA (UniProt P17050)", "log2 fold change": "inactive: -0.028"}
{"target": "NEDD4L (UniProt Q96PU5)", "log2 fold change": "inactive: 0.039"}
{"target": "NAA11 (UniProt Q9BSU3)", "log2 fold change": "inactive: 0.049"}
{"target": "NDUFB8 (UniProt O95169)", "log2 fold change": "inactive: 0.02"}
{"target": "NAA10 (UniProt P41227)", "log2 fold change": "inactive: -0.01"}
{"target": "NDUFC2 (UniProt O95298)", "log2 fold change": "inactive: 0.026"}
{"target": "NECAP2 (UniProt Q9NVZ3)", "log2 fold change": "inactive: 0.056"}
